For at least one compound, name, drawing or mass did not settle the structure.
Columns and labels:
rats = assay: Effect of haloperidol and clozapine on PCP induced hypofunction: LCGU; type: in vivo, rat
Text: The effect of antipsychotics on the positive symptoms is less well studied regarding imaging studies.

CIRL1 mRNA = assay: Semi-quantitative RT-PCR, prefrontal cortex, chronic PCP and antipsychotic treatment; type: in vivo, rat; conditions: chronic PCP plus antipsychotic
Experimental: FIG. 14 illustrates the level of CIRL1 mRNA present in the prefrontal cortex of rat brain following chronic PCP and antipsychotic treatment (n=12 for all groups apart from veh-veh where n=11). […] and […] (SEQ ID NOS: 25-26) were the primer sequences used to amplify this product.
RT-PCR for specific isoforms of CIRL was then conducted in the prefrontal cortex.
1 ml of lysis buffer (Qiagen), including 1% β-mercaptoethanol, was added to approximately 50-100 mg of brain tissue. Tissue samples were homogenised using a ribolyser (Hybaid) with 3 bursts at 6.5 g lasting 20 seconds each. Samples were then spun at room temperature in a microfuge for 3 minutes. The supernatant was removed and re-spun for a further 3 minutes. The supernatant was decanted to a fresh tube to which an equal volume of 70% ethanol was added. The remaining RNA isolation procedure was carried out according to the manufacturer's protocol (Qiagen).
Synthesis of cDNA was carried out according to manufacturers protocols (Life Technologies). Briefly 3-5μg of total RNA was reverse transcribed using oligo dT priming. After cDNA synthesis, samples were aliquoted and stored at −70° C. […]
Alterations in expression levels were determined by semi-quantitative PCR. […] Samples were removed over 4 consecutive cycles, however, the first cycle to be removed sometimes varied depending on when logarithmic amplification was detected. […]

[1] = antipsychotic in conjunction with PCP 2.58 mgkg^−1
[2] = clozapine or haloperidol via minipump

CN1CCN(C2=Nc3cc(Cl)ccc3Nc3ccccc32)CC1 [clozapine]
effect on PCP hypofunction in medial orbital cortex, prelimbic cortex, CA1, reticular nucleus of the thalamus (rats; [1]): failed to modulate the hypofunction produced by PCP
effect on PCP-induced hypofunction in auditory system (AuD, lateral lemniscus, cochlear nucleus) (rats; [1]): reversed the PCP-induced hypofunction
LCGU in auditory system (AuD, lateral lemniscus, cochlear nucleus), drug alone (rats; [2]): did not produce a significant hypofunction
LCGU in medial orbital cortex, prelimbic cortex, CA1, reticular nucleus of the thalamus, drug alone (rats; [2]): produced a metabolic hypofunction
effect on PCP-induced reductions in the level of CIRL1 mRNA (CIRL1 mRNA): reversal

Reference: patent US20070074295A1 (priority 2000, published 2007)
